# From publication doi:10.1101/2022.06.27.497790
# Results are given in words; binding and its absence hold for the method and conditions named. Binding seen in cells or lysates may run through a third protein. Some results given as binding are weak or reduced against the parent protein; the word gives no strength. Where a sequence is shown, tags or fusion partners need not be part of it.
# T1: Hspa13^Flag (human (cDNA from HEK293T)) (UniProt P48723)
# T1 sequence: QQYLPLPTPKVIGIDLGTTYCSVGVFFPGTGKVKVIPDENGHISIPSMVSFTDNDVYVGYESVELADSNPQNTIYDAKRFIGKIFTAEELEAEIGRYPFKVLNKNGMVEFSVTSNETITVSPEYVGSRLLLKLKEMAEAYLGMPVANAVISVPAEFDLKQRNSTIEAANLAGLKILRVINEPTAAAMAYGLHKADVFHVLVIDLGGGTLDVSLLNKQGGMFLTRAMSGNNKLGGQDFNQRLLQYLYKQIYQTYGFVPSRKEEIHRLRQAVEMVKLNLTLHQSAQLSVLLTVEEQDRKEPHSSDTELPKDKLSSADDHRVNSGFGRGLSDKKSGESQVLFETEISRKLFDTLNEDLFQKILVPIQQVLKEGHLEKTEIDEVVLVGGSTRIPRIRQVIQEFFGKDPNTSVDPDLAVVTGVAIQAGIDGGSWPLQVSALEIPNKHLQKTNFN
# Target: T1, Hspa13^Flag (human (cDNA from HEK293T))
# Experiment: co-IP
binder,measurement,value
"Bcap31 (protein, UniProt P51572 1-246) MSLQWTAVATFLYAEVFVVLLLCIPFISPKRWQKIFKSRLVELLVSYGNTFFVVLIVILVLLVIDAVREIRKYDDVTEKVNLQNNPGAMEHFHMKLFRAQRNLYIAGFSLLLSFLLRRLVTLISQQATLLASNEAFKKQAESASEAAKKYMEENDQLKKGAAVDGGKLDVGNAEVKLEEENRSLKADLQKLKDELASTKQKLEKAENQVLAMRKQSEGLTKEYDRLLEEHAKLQAAVDGPMDKKEE",binding,binds
